# Hit rate of the full screen: of about 340,000 compounds, about 6,200 (1.8%) were called active. This list was built around the results that the source calls inconclusive (neither active nor inactive); the mix of calls is not that of the screen. The call rests on the fitted dose curve; in most records, active means well fitted activation curve with a large enough effect; inconclusive means small, poorly fitted or top-dose-only effect; inactive means no such curve, though single readings can be large or run the other way. Potencies beside an inconclusive call are fits to weak or partial responses and may not hold up.
# Assay: A quantitative high throughput screen for small molecules that induce DNA re-replication in SW480 colon adenocarcinoma cells. Further: nearly all actives have a fitted effect of over 55% in size. On re-replication activation: % of control where 0% means no effect.
# Conditions: Hoechst DNA content imaging, 48 h; re-replication activation: at 46.1 µM (top of the series)
# Method in brief: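 Per well, 250 cells were exposed to pinned compound for 48 hr. Nuclear DNA was visualised with Hoechst (40 min, 37 C) and total object intensity recorded by fluorescence scanning.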
# Potency means the concentration at half of the fitted maximal effect.
SMILES,Potency,re-replication activation
CCOC(=O)c1[nH]c2c(c1C)C(=O)CC(c1ccco1)C2 (stereo not drawn),active: 0.184 µM,
CC(c1ccco1)N(C(=O)c1cccc(Br)c1)c1ccccn1 (stereo not drawn),inactive,
C[C@H](CO)N1C[C@H](C)[C@@H](CN(C)C(=O)NC2CCCCC2)Oc2ccc(NS(=O)(=O)c3ccc(F)cc3)cc2C1=O,inactive,
COc1cc2c(cc1NS(=O)(=O)N1CCCCC1)oc1ccccc12,"inconclusive: 20 µM [activator, single point]",
N#CCC(=O)NNC(=S)NC(=O)C(c1ccccc1)c1ccccc1,inactive,
CC(C)c1ccc(N=C2NN=C(c3cccs3)CS2)cc1,"inconclusive: 20.6 µM [activator, partial curve, poor fit]",
O=C(CSC1=NS(=O)(=O)c2ccccc2N1)Nc1ccccc1F,inactive,
CC(=O)C1=C(c2cccc([N+](=O)[O-])c2)N(C(C)=O)n2c(C)nnc2S1,"inconclusive: 29.1 µM [activator, single point]",
Cc1cccc(C(=O)NC(=S)NNC(=O)COc2ccc(Cl)cc2)c1,"inconclusive: 29.1 µM [activator, single point]",
COc1ccccc1-c1nnc2n1N=C(c1ccc(O)c(O)c1)CS2,"inconclusive: 0.259 µM [activator, full curve, poor fit]",
Cn1cc(CN2CCCC(C(=O)c3ccc(-c4ccccc4)cc3)C2)cn1 (stereo not drawn),inactive,
Cc1cc(C)cc(N(CC(=O)Nc2ccc(C(F)(F)F)cc2)S(=O)(=O)c2c(C)[nH]c(=O)[nH]c2=O)c1,"inconclusive: 18.4 µM [activator, single point]",
CC(C)CC(=O)Nc1nc2ccc(S(=O)(=O)N3CCOCC3)cc2s1,active: 18.4 µM,
Cc1ccc(Nc2cc(-c3ccccc3)nc3ncnn23)cc1,inactive,
CN(C1CCCCC1)S(=O)(=O)c1ccc(NC(=S)NC(=O)c2cccs2)cc1,"inconclusive: 3.55 µM [activator, single point]",
CC1(C)Oc2ccc3ccc(=O)oc3c2/C(=C/Nc2ccc(O)cc2)C1=O,"inconclusive: 16.4 µM [activator, partial curve, poor fit]",
C=CCC(=O)N(CC)CC1CCCN(CCc2cccc(F)c2)C1 (stereo not drawn),inactive,
N#CCC(=O)N/N=C/c1cn(Cc2ccc(Cl)cc2Cl)c2ccccc12,"inconclusive: 25.9 µM [activator, single point]",
COc1ccc(C(=O)NNC(=O)c2ccc3ccccc3n2)cc1,"inconclusive: 20 µM [activator, single point]",
CN1CCN(CCCNC(=O)c2ccc3c(=O)n(CCc4ccccc4)c(=O)[nH]c3c2)CC1,active: 1.64 µM,
COC(=O)COc1ccc(/C=N/NC(=O)CN(c2ccccc2OC)S(=O)(=O)c2ccccc2)cc1,"inconclusive: 29.1 µM [activator, single point]",
COc1ccc(/C=C/C(=O)NC(=S)NCC2CCCO2)cc1 (stereo not drawn),inactive,
CC(C)(C)CC(=O)Nc1nnc(C(F)(F)F)s1,inactive,
COc1ccccc1NC(=O)c1ccc(-c2ccc(Br)cc2)o1,"inconclusive: 25.9 µM [activator, single point]",
CCCCNc1c(-c2ccc(OC)c(SC3CCCCC3)c2)nc2cnccn12,"inconclusive: 23.1 µM [activator, single point]",

# By substructure, the entries above containing a carbonyl joined to an NH by a bond outside any ring (14)
SMILES,Potency,re-replication activation
C[C@H](CO)N1C[C@H](C)[C@@H](CN(C)C(=O)NC2CCCCC2)Oc2ccc(NS(=O)(=O)c3ccc(F)cc3)cc2C1=O,inactive,
N#CCC(=O)NNC(=S)NC(=O)C(c1ccccc1)c1ccccc1,inactive,
O=C(CSC1=NS(=O)(=O)c2ccccc2N1)Nc1ccccc1F,inactive,
Cc1cccc(C(=O)NC(=S)NNC(=O)COc2ccc(Cl)cc2)c1,"inconclusive: 29.1 µM [activator, single point]",
Cc1cc(C)cc(N(CC(=O)Nc2ccc(C(F)(F)F)cc2)S(=O)(=O)c2c(C)[nH]c(=O)[nH]c2=O)c1,"inconclusive: 18.4 µM [activator, single point]",
CC(C)CC(=O)Nc1nc2ccc(S(=O)(=O)N3CCOCC3)cc2s1,active: 18.4 µM,
CN(C1CCCCC1)S(=O)(=O)c1ccc(NC(=S)NC(=O)c2cccs2)cc1,"inconclusive: 3.55 µM [activator, single point]",
N#CCC(=O)N/N=C/c1cn(Cc2ccc(Cl)cc2Cl)c2ccccc12,"inconclusive: 25.9 µM [activator, single point]",
COc1ccc(C(=O)NNC(=O)c2ccc3ccccc3n2)cc1,"inconclusive: 20 µM [activator, single point]",
CN1CCN(CCCNC(=O)c2ccc3c(=O)n(CCc4ccccc4)c(=O)[nH]c3c2)CC1,active: 1.64 µM,
COC(=O)COc1ccc(/C=N/NC(=O)CN(c2ccccc2OC)S(=O)(=O)c2ccccc2)cc1,"inconclusive: 29.1 µM [activator, single point]",
COc1ccc(/C=C/C(=O)NC(=S)NCC2CCCO2)cc1 (stereo not drawn),inactive,
CC(C)(C)CC(=O)Nc1nnc(C(F)(F)F)s1,inactive,
COc1ccccc1NC(=O)c1ccc(-c2ccc(Br)cc2)o1,"inconclusive: 25.9 µM [activator, single point]",

# In the list so far, these have a CF3 group.
SMILES,Potency,re-replication activation
Cc1cc(C)cc(N(CC(=O)Nc2ccc(C(F)(F)F)cc2)S(=O)(=O)c2c(C)[nH]c(=O)[nH]c2=O)c1,"inconclusive: 18.4 µM [activator, single point]",
CC(C)(C)CC(=O)Nc1nnc(C(F)(F)F)s1,inactive,

# The results go on:

SMILES,Potency,re-replication activation
CCOC(=O)C1=CN(CC2CCCO2)C=C(C(=O)OCC)C1c1ccccc1C(F)(F)F (stereo not drawn),active: 14.6 µM,
COCCNC(=O)/C(C#N)=C/c1nc(N(C)C)n(-c2ccc(F)cc2)c1Cl,"inconclusive: 25.9 µM [activator, single point]",
CCc1c(C)nc2cc(-c3cc(OC)cc(OC)c3)nn2c1N1CCN(CCN2CCOCC2)CC1,inactive,
O=C(CSc1nc2ccccc2s1)NNC(=O)Nc1ccc(Cl)c(Cl)c1,inactive,
CC(=O)Nc1ccc(C(=O)OCC(=O)NCc2cccs2)cc1,inactive,
O=C(NCCCN1CCOCC1)c1cc(-c2ccccc2)on1,"inconclusive: 29.1 µM [activator, single point]",
O=C(NCc1ccco1)C1Cc2ccccc2CN1C(=O)c1ccco1 (stereo not drawn),"inconclusive: 20.6 µM [activator, single point]",
CC(C)(C)c1ccc(C(=O)NC(=S)Nc2nc3c(s2)CCCC3)cc1,"inconclusive: 14.6 µM [activator, partial curve, poor fit]",
Cc1ncc(CO)c(/C=N/NC(=S)Nc2ccc(F)cc2)c1O,"inconclusive: 29.1 µM [activator, partial curve, poor fit]",
CCCCn1c(N)c(N(CC)C(=O)c2ccc([N+](=O)[O-])c(C)c2)c(=O)[nH]c1=O,inactive,
C/C(=N\NC(=O)c1cc(-c2ccco2)nc2ccccc12)c1cccnc1,"inconclusive: 29.1 µM [activator, single point]",
COc1cc(C2c3[nH]c4ccccc4c3CCN2Cc2cn(C)nc2C)ccc1F (stereo not drawn),"inconclusive: 29.1 µM [activator, single point]",
O=C(NNC(=O)C1C2CCCCC21)c1coc(=O)c(Br)c1 (stereo not drawn),inactive,
CCCCn1c(N)c(N(CCC(C)C)C(=O)COC(=O)c2ccc(CC)cc2)c(=O)[nH]c1=O,"inconclusive: 14.6 µM [activator, partial curve]",
Cc1ccc2cc3c(NC(=O)C4CCCO4)nn(CC(C)C)c3nc2c1 (stereo not drawn),"inconclusive: 5.8 µM [activator, full curve]",
COC(=O)Cc1ccc(NC(=O)c2ccccc2Br)cc1,inactive,
Cc1ccc(CN2CCN(/N=C/C=C/c3ccccc3[N+](=O)[O-])CC2)cc1,"inconclusive: 16.4 µM [activator, single point]",
CC(NC(=O)Cc1ccc([N+](=O)[O-])cc1)c1ccc2c(c1)OCO2 (stereo not drawn),inactive,
CCN1C(=O)/C(=C/c2cc(C)n(C)c2C)SC1=Nc1ccc(OC)cc1,"inconclusive: 0.92 µM [activator, full curve]",
CN1CCC(OC(=O)Cc2ccc(Cl)cc2)CC1,active: 14.6 µM,
CC(=O)c1cccc(OCC(O)CNCC2COc3ccccc3O2)c1 (stereo not drawn),inactive,
Cc1csc(NC(=O)/C=C/c2ccco2)n1,"inconclusive: 29.1 µM [activator, single point]",
O=C(Nc1ncccc1O)c1ccc(OCC2CCCO2)cc1 (stereo not drawn),"inconclusive: 2.06 µM [activator, full curve, poor fit]",
CCN(C(=O)c1cc(S(=O)(=O)N2CCCCC2)c[nH]1)c1ccc(OC)cc1,inactive,
CC(=O)Nc1ccc(S(=O)(=O)c2ccc([N+](=O)[O-])cc2)cc1,,inconclusive: 76.4% [activator]

SMILES,Potency,re-replication activation
COc1ccc(N2C(=NC(=O)c3ccccc3)SC3CS(=O)(=O)CC32)cc1 (stereo not drawn),inactive,
C=CCSc1cc(C)nc2c(-c3ccccc3)cnn12,"inconclusive: 9.2 µM [activator, single point]",
COC(=O)c1ccc(NC(=O)c2cccc(N3C(=O)C4C5C=CC(C6CC56)C4C3=O)c2)cc1 (stereo not drawn),inactive,
CCCCCc1c(C)nc(Nc2ccc(F)cc2)[nH]c1=O,"inconclusive: 29.1 µM [activator, single point]",
Cc1ccc(-n2nc3c(=O)n(CC(=O)NCCc4ccc(Cl)cc4)nc(C)c3c2C)cc1,inactive,
Cc1nc(-c2ccc(F)cc2)c(CC(=O)N2CCN(S(=O)(=O)c3cccc([N+](=O)[O-])c3)CC2)s1,"inconclusive: 7.31 µM [activator, partial curve, poor fit]",
Cc1nc2c(-c3ccc(F)cc3)c(C)[nH]n2c(=O)c1Cl,active: 7.31 µM,
CCOC(=O)c1sc(NNC(=O)c2ccc(F)cc2)nc1C,"inconclusive: 29.1 µM [activator, partial curve, poor fit]",
Cc1oc(-c2ccccc2F)nc1CN1CCC(C(=O)NCc2ccco2)CC1,inactive,
COc1ccc(CNC(=O)c2cc(-c3ccccc3OC)on2)cc1,inactive,
O=C(NC(c1ccccc1)c1ccccc1)c1ccc(Br)o1,"inconclusive: 3.98 µM [activator, single point]",
Cc1cccc2c(=O)n3c(cc12)-c1[nH]c2ccccc2c1CC3,"inconclusive: 18.4 µM [activator, single point]",
Cc1cc(Nc2cccc(F)c2)nc(NCc2ccccc2)n1,"inconclusive: 32.6 µM [activator, partial curve, poor fit]",
NC(=O)C1(N2CCCCC2)CCN(C(=S)Nc2ccc(F)c(Cl)c2)CC1,"inconclusive: 7.31 µM [activator, partial curve, poor fit]",
CCc1nc(Sc2nc(C)cc(C)n2)c2oc3ccccc3c2n1,"inconclusive: 29.1 µM [activator, single point]",
CNc1nc(Nc2ccc(C)c(Cl)c2)c2cnn(C)c2n1,inactive,
CCc1ccc(Sc2cc(C(=O)NCCN3CCOCC3)c3ccccc3n2)cc1,inactive,
COc1c(C)cccc1C(=O)Nc1ccc(OCC(=O)N2CCOCC2)cc1C,inactive,
O=C(NCCc1ccc(Cl)cc1)c1cc(-c2ccccn2)nc2ccccc12,"inconclusive: 13 µM [activator, partial curve]",
COc1ccc(/C=N/NC(=O)c2ccoc2C)cc1COc1c(C)cccc1C,"inconclusive: 22.4 µM [activator, single point]",
COc1cc([N+](=O)[O-])ccc1N/C=C/C(=O)c1cccs1,inactive,
Cc1ccsc1C(=O)N(C)CC(=O)N(CC(C)C)c1c(N)n(CC(C)C)c(=O)[nH]c1=O,inactive,
Cc1nn(CCCC(=O)Nc2nccs2)c(C)c1[N+](=O)[O-],inactive,

# From PubChem BioAssay AID624297 (National Center for Advancing Translational Sciences (NCATS), 2012)
